The target of the assay is PD-1 (CHO-PD-1, 表达PD-1的CHO细胞) (human) (UniProt Q15116). The experiment in a line: FACS of 293T transfection supernatant on CHO-PD-1 cells, goat anti-mouse IgG Fc-FITC.

The chains behind the UniProt entries cited, without tags or fusion partners. Residues count along the entry.
UniProt Q15116, residues 25-288: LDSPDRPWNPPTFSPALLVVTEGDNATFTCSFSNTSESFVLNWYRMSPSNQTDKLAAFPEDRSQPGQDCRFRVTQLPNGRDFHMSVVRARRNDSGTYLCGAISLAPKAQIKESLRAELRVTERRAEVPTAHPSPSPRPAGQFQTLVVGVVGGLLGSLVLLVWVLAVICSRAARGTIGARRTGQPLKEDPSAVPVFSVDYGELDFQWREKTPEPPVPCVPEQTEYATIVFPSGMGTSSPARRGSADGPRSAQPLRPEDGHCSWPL

No constants are given. Whether binding was seen depends on the method and setting. Some results given as binding are weak or reduced against the parent protein; the word gives no strength.

B1: PD1-05-4C3-1D12-1C8重组抗体 (antibody, V domains shown)
VH: EVLLQQSGPELVKPGASVKISCKASGYTFSDNNIDWVRQSHGKSLEWIGDINPSNGGVIYKQNFEGKAILTVDKSSSTAYMELRSLTSEDTSVYYCARTRSDGMDYWGQGTSVTVSS
VL: DIQMTQSPASQSASLGESVTITCLASQTIGTWLAWYQQKPGKSPQLLIYDATSLTDGVPSRFSGSGSGTKFSFKISSLQAEDFVSYYCQQFYSTPFTFGSGTKLEIK
Take B1: the binding entry is “binds”.

For the origin of these results see patent CN113336848A.
